We go through one substance from publication PMC10460429.

By UniProt entry, the sequences of proteins in these tests, tags left out. Where a name states a change or a piece, a line headed by the entry shows the natural chain unless it says otherwise.
UniProt O35613: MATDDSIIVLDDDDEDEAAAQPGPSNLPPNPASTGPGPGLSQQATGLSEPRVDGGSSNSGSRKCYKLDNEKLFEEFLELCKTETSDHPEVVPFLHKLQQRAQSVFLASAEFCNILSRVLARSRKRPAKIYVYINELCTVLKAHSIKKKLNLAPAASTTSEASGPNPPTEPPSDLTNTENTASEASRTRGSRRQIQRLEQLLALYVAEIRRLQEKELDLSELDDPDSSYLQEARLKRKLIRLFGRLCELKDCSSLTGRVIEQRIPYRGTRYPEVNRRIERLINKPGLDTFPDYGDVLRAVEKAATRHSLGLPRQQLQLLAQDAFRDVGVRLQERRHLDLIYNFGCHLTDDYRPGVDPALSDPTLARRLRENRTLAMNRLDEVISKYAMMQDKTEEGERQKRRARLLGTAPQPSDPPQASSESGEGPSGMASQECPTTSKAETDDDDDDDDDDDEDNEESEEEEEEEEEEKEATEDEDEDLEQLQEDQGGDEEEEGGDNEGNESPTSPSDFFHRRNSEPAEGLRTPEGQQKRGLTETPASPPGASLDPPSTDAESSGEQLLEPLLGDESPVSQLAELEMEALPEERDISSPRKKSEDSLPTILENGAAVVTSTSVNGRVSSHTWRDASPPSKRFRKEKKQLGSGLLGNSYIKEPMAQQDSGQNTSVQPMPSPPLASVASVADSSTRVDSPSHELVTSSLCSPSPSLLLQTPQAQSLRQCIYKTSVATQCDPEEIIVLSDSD
UniProt P46100: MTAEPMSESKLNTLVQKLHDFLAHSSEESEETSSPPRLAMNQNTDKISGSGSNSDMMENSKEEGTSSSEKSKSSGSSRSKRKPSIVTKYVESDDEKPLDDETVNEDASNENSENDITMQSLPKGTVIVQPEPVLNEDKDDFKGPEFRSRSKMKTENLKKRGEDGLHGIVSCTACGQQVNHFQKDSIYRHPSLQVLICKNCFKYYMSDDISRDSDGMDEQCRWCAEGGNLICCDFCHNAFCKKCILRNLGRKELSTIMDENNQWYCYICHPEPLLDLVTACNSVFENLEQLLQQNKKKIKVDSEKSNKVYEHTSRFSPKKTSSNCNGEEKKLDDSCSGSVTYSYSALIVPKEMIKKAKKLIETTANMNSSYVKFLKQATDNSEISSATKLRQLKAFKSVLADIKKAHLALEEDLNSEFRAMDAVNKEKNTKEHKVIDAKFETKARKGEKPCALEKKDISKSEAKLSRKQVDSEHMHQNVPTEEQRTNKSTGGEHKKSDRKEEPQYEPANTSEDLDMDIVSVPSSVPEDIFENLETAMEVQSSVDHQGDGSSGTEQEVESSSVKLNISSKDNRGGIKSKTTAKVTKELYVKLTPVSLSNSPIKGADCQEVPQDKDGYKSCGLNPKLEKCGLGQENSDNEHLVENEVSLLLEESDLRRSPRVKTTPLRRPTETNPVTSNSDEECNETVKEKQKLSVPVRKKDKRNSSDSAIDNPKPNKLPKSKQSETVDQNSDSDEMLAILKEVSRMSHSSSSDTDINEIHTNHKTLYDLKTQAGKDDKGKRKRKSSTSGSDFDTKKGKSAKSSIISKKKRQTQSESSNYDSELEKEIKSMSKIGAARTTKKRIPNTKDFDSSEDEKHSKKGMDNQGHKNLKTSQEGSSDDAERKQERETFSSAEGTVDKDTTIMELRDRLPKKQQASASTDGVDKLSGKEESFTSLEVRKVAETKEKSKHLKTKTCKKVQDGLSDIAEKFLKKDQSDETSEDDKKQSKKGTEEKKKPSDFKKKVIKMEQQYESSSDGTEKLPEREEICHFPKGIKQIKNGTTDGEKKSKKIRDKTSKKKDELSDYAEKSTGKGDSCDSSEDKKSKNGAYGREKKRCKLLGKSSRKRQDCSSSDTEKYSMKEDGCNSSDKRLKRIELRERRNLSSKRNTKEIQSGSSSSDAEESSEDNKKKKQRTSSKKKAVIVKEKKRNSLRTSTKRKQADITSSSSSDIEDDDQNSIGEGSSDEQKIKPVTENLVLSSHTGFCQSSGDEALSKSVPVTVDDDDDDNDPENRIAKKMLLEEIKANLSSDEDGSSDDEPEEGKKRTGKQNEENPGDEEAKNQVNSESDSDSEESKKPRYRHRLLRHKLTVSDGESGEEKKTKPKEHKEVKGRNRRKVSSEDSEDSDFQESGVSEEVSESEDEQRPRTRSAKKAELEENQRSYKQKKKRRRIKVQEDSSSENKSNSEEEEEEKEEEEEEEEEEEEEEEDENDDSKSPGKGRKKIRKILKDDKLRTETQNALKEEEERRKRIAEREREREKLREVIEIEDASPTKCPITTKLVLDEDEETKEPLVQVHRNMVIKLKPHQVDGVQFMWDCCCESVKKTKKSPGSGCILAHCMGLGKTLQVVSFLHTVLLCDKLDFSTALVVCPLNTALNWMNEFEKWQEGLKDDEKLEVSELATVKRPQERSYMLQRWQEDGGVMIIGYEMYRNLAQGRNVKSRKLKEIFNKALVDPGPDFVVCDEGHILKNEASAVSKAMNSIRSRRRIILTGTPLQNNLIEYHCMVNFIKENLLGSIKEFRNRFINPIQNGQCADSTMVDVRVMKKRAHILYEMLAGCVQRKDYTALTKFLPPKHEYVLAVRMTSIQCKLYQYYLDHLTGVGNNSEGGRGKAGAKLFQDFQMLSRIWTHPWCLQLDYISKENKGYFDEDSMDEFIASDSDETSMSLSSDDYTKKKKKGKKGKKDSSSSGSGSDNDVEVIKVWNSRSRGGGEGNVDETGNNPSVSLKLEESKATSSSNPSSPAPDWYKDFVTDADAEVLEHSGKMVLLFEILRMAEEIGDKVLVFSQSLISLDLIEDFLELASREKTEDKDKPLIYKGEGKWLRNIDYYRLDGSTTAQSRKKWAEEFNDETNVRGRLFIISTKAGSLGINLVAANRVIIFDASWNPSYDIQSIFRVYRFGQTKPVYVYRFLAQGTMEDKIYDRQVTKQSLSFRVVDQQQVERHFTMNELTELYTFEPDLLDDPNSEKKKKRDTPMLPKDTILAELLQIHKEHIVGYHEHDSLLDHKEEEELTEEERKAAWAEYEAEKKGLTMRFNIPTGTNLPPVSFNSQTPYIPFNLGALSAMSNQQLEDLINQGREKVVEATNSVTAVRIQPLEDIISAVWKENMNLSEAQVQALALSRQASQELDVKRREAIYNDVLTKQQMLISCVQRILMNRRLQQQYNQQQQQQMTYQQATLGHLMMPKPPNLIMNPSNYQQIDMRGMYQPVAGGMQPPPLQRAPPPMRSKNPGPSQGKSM

Results are given in words; binding and its absence hold for the method and conditions named. Binding seen in cells or lysates may run through a third protein. Some entries that bind do so weakly or less than the wild type.

Assay [1] deals with Myc-tagged Daxx S226A (mouse) (UniProt O35613). Kind of assay: co-IP; Myc-tagged Daxx (wild-type or mutants) overexpressed with either ATRX or H3.3 in 293 T cells; lysis in 50 mM Tris-HCl pH 7.4, 150 mM NaCl, 1% NP-40, 2 mM EDTA; 1 mg lysate precipitated with c-Myc antibody overnight and Protein A agarose for 4 h; blots for Atrx, H3.3, Daxx.
The target of assay [2] is Myc-tagged Daxx (wild-type) (mouse) (UniProt O35613). Described as above.

As to ATRX (from UniProt P46100 1-2492), the binding result in assay [1] and in assay [2] was “binds” throughout.
